Binding data for 2 substances are collected here from doi:10.1101/2023.09.28.559965.

The chains behind the UniProt entries cited, without tags or fusion partners.
UniProt P15924: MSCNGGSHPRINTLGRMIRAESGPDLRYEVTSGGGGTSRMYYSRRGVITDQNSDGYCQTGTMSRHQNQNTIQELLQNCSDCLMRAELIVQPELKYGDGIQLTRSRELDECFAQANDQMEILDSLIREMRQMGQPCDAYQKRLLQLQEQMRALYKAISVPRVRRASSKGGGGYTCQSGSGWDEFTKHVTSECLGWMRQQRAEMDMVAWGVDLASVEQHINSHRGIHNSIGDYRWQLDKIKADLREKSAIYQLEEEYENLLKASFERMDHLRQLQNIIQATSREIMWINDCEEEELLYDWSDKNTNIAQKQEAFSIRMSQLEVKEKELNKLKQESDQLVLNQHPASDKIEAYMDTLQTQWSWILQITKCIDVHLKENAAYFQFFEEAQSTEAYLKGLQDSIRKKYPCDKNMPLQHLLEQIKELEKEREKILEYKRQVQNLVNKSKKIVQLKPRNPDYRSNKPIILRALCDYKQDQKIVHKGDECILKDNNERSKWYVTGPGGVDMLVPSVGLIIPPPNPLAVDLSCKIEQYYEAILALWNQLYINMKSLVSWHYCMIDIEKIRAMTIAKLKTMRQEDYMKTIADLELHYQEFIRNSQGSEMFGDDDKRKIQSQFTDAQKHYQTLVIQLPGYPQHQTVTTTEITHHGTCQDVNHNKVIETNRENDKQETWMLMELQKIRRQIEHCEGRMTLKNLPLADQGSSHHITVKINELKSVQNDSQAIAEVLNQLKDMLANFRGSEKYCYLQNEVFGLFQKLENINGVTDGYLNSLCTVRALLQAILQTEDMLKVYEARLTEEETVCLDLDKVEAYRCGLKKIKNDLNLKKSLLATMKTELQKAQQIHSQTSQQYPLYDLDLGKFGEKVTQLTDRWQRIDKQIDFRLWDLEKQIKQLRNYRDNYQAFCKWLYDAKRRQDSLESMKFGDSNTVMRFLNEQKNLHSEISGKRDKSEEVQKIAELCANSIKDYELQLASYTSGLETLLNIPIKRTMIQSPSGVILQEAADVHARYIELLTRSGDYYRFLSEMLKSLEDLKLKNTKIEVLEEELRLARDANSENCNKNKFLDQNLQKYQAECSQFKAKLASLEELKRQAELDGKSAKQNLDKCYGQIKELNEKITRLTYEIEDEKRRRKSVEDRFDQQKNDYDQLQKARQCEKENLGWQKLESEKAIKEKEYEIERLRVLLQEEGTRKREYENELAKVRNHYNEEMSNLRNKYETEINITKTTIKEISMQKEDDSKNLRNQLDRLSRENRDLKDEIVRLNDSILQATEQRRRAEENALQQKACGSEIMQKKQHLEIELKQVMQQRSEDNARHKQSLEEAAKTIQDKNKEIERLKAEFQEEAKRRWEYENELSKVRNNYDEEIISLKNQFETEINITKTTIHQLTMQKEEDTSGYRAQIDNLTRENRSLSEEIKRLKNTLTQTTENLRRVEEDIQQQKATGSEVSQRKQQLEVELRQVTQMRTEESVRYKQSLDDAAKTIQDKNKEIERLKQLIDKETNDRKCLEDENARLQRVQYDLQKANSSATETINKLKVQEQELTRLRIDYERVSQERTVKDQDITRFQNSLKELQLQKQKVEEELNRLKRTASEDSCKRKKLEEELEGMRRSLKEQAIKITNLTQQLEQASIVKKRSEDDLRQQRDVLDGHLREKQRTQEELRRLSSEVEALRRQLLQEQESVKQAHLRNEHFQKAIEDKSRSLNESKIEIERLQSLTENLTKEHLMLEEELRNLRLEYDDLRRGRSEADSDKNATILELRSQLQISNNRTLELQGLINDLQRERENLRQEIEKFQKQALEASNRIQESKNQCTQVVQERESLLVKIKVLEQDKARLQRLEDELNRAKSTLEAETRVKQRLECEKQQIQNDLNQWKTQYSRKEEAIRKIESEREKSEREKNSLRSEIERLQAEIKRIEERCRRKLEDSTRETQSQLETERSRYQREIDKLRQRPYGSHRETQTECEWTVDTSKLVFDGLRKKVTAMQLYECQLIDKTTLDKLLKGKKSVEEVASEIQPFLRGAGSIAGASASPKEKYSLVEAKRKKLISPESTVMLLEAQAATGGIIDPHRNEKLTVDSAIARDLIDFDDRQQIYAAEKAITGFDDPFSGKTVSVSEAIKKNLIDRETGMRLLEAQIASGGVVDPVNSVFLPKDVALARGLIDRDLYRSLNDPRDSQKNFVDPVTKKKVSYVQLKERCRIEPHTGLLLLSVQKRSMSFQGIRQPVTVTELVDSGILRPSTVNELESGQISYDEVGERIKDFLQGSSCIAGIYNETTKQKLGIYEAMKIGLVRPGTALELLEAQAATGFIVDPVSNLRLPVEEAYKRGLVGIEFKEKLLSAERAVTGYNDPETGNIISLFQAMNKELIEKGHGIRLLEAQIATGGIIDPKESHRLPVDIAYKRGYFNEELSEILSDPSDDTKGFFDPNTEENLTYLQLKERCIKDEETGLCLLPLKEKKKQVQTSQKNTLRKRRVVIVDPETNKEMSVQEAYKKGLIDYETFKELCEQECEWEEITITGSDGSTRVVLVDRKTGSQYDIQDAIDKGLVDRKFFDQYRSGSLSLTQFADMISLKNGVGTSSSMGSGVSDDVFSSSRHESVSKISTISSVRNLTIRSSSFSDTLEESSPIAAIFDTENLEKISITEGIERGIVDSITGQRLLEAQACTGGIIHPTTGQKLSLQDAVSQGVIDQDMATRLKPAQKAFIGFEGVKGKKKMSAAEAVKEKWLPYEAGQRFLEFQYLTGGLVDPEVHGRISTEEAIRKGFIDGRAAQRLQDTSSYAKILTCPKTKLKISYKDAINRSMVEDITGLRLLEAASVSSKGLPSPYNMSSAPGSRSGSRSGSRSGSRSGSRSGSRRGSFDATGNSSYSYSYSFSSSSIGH
UniProt P08670: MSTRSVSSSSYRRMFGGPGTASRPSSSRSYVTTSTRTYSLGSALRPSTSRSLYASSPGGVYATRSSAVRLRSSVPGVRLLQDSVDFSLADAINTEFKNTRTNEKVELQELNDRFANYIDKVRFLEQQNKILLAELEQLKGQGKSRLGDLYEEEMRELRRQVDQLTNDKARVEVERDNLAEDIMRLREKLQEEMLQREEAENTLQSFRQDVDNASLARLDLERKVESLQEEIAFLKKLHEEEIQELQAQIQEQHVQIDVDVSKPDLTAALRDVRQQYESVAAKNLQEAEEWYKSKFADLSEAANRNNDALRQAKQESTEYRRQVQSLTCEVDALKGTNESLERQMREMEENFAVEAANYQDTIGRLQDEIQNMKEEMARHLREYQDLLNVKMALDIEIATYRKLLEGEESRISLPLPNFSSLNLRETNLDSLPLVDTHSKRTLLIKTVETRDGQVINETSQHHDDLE

This assay has as its target HER2 with eGFP tag, doxycycline-induced in MCF10A-Teti-HER2_GFP cells (UniProt P04626). Put plainly: co-IP.

Results are given in words; binding and its absence hold for the method and conditions named. In cells and extracts the contact can be indirect. Some binding calls cover weakened binding; strength is not graded here.

For “Desmoplakin (from UniProt P15924 1-2871)”, the binding result was “binds”.
With Vimentin (from UniProt P08670 1-466), the binding entry was “binds”.
